Measurements: the supplement of paper PMC8728848
This is one part of the list.

How the values were obtained:
Test in all cases: glycan array binding signal (z-score within array); higher = stronger binding
Details in all cases: glycan notation: IUPAC condensed, linker removed
Fuc(a1-3)GlcNAc = molecular target: Fuc(a1-3)GlcNAc
Outline: (§1)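 Columns mapping to the same glycan were averaged after glycan names were converted to IUPAC-condensed notation. The data come from 3228 arrays in the Consortium for Functional Glycomics database, limited to those with an available protein sequence. Binding is reported as a within-array Z-score averaged across arrays of one protein sequence and across linkers.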

[1] = molecular target: Fuc(a1-3)[Gal(b1-4)]Glc6S
Outline: as §1

[2] = molecular target: Fuc(a1-3)[Gal(b1-4)]GlcNAc
Outline: as §1

[3] = molecular target: Fuc(a1-3)[Gal(b1-4)]GlcNAc(b1-2)Man
Outline: as §1

[4] = molecular target: Fuc(a1-3)[Gal(b1-4)]GlcNAc(b1-2)Man(a1-3)[Fuc(a1-3)[Gal(b1-4)]GlcNAc(b1-2)Man(a1-6)]Man(b1-4)GlcNAc(b1-4)GlcNAc
Outline: as §1

[5] = molecular target: Fuc(a1-3)[Gal(b1-4)]GlcNAc(b1-2)Man(a1-3)[Fuc(a1-3)[Gal(b1-4)]GlcNAc(b1-2)Man(a1-6)]Man(b1-4)GlcNAc(b1-4)[Fuc(a1-6)]GlcNAc
Outline: as §1

[6] = molecular target: Fuc(a1-3)[Gal(b1-4)]GlcNAc(b1-3)Gal(b1-3)[Fuc(a1-4)]GlcNAc
Outline: as §1

[7] = molecular target: Fuc(a1-3)[Gal(b1-4)]GlcNAc(b1-3)Gal(b1-4)[Fuc(a1-3)]GlcNAc
Outline: as §1

[8] = molecular target: Fuc(a1-3)[Gal(b1-4)]GlcNAc(b1-3)Gal(b1-4)[Fuc(a1-3)]GlcNAc(b1-3)Gal(b1-4)[Fuc(a1-3)]GlcNAc
Outline: as §1

[9] = molecular target: Fuc(a1-3)[Gal(b1-4)]GlcNAc(b1-3)GalNAc
Outline: as §1

[10] = molecular target: Fuc(a1-3)[Gal(b1-4)]GlcNAc(b1-6)GalNAc
Outline: as §1

[11] = molecular target: Fuc(a1-3)[Gal(b1-4)]GlcNAc(b1-6)[Gal(b1-3)GlcNAc(b1-3)]Gal(b1-4)Glc
Outline: as §1

[12] = molecular target: Fuc(a1-3)[Gal(b1-4)]GlcNAc6S
Outline: as §1

[13] = molecular target: Fuc(a1-3)[Gal3S(b1-4)]Glc
Outline: as §1

[14] = molecular target: Fuc(a1-3)[Gal3S(b1-4)]GlcNAc
Outline: as §1

[15] = molecular target: Fuc(a1-3)[Gal3S(b1-4)]GlcNAc6S
Outline: as §1

[16] = molecular target: Fuc(a1-3)[GalNAc(b1-4)]GlcNAc
Outline: as §1

[17] = molecular target: Fuc(a1-3)[GalNAc(b1-4)]GlcNAc6S
Outline: as §1

Fuc(a1-4)GlcNAc = molecular target: Fuc(a1-4)GlcNAc
Outline: as §1

Fuc(b1-3)GlcNAc = molecular target: Fuc(b1-3)GlcNAc
Outline: as §1

Gal(a1-2)Gal = molecular target: Gal(a1-2)Gal
Outline: as §1

Gal(a1-3)Gal = molecular target: Gal(a1-3)Gal
Outline: as §1

Gal(a1-3)Gal(b1-3)GlcNAc = molecular target: Gal(a1-3)Gal(b1-3)GlcNAc
Outline: as §1

[18] = molecular target: Gal(a1-3)Gal(b1-3)GlcNAc(b1-2)Man
Outline: as §1

[19] = molecular target: Gal(a1-3)Gal(b1-3)GlcNAc(b1-2)Man(a1-3)[Gal(a1-3)Gal(b1-3)GlcNAc(b1-2)Man(a1-6)]Man(b1-4)GlcNAc(b1-4)GlcNAc
Outline: as §1

[20] = molecular target: Gal(a1-3)Gal(b1-3)GlcNAc(b1-3)GalNAc
Outline: as §1

[21] = molecular target: Gal(a1-3)Gal(b1-3)GlcNAc(b1-6)GalNAc
Outline: as §1

[22] = molecular target: Gal(a1-3)Gal(b1-3)[Fuc(a1-4)]GlcNAc(b1-2)Man(a1-3)[Gal(a1-3)Gal(b1-3)[Fuc(a1-4)]GlcNAc(b1-2)Man(a1-6)]Man(b1-4)GlcNAc(b1-4)GlcNAc
Outline: as §1

Gal(a1-3)Gal(b1-4)Glc = molecular target: Gal(a1-3)Gal(b1-4)Glc
Outline: as §1

Gal(a1-3)Gal(b1-4)GlcNAc = molecular target: Gal(a1-3)Gal(b1-4)GlcNAc
Outline: as §1

[23] = molecular target: Gal(a1-3)Gal(b1-4)GlcNAc(b1-2)Man
Outline: as §1

[24] = molecular target: Gal(a1-3)Gal(b1-4)GlcNAc(b1-2)Man(a1-3)[Gal(a1-3)Gal(b1-4)GlcNAc(b1-2)Man(a1-6)]Man(b1-4)GlcNAc(b1-4)GlcNAc
Outline: as §1

[25] = molecular target: Gal(a1-3)Gal(b1-4)GlcNAc(b1-3)GalNAc
Outline: as §1

[26] = molecular target: Gal(a1-3)Gal(b1-4)GlcNAc(b1-6)GalNAc
Outline: as §1

[27] = molecular target: Gal(a1-3)Gal(b1-4)[Fuc(a1-3)]GlcNAc
Outline: as §1

[28] = molecular target: Gal(a1-3)Gal(b1-4)[Fuc(a1-3)]GlcNAc(b1-2)Man(a1-3)[Gal(a1-3)Gal(b1-4)[Fuc(a1-3)]GlcNAc(b1-2)Man(a1-6)]Man(b1-4)GlcNAc(b1-4)GlcNAc
Outline: as §1

Gal(a1-3)GalNAc = molecular target: Gal(a1-3)GalNAc
Outline: as §1

B1: GS7807Q-bfa-507-19-507 (Bacteroides fragilis) (protein)
chain: ASCNKFDDLNTNPDAATKVTAPMLATKLILNITQQGSAKNFVYHSMLSKQIAWSENASDEQYNLFGRTDFDGYTILTNCQKMVDAANEGDKDSYAALAKFMKAYKLFYKSLEVGDIPYSDALKGEEGVQKPKYDTQKEVMRQVLEDLEEAYTLFSSGSDFDGDPIFGGDTENWKKTVVAFELKVLTHLCKKDTDADLKVKERFARLVSSGSLMTSNADNFQLVYSNKAGQLYPFYYTQNKHSDYLMMSSVIIDNLKKFNDYRMFYYASPAKAQTDKGIKDSEWDAYLSIDPSDSYSNISVLYGKGEFCLANLRYTRVPEGEPLMRLSYAEQNFILAEGAVRGWISEDASTYYKKGIEASMNFIADNTPDKEEYTHGRTITQEYIQEYLAQPVIQLSGDKEKDLEMILLQRYLASFLQHPYDAYYDYRRTGYPVLPINPSTNLNTEKNKIPTRWMYPEAEFSYNPDNANEAVQRQYNGSDDVNKLMWILQ
With B1 the “glycan array binding signal (z-score)” value (Fuc(a1-3)GlcNAc) was -0.853, the “glycan array binding signal (z-score)” value [1] was 1.06 and the “glycan array binding signal (z-score)” value [2] was 0.144. The “glycan array binding signal (z-score)” value [3] was -0.188, the “glycan array binding signal (z-score)” value [4] was -0.076 and the “glycan array binding signal (z-score)” value [5] was -0.03. The “glycan array binding signal (z-score)” value [6] was -0.489, the “glycan array binding signal (z-score)” value [7] was 0.613 and the “glycan array binding signal (z-score)” value [8] was 1.93. The “glycan array binding signal (z-score)” value [9] was -0.452, the “glycan array binding signal (z-score)” value [10] was -0.103 and the “glycan array binding signal (z-score)” value [11] was 0.297. The “glycan array binding signal (z-score)” value [12] was -1.03, the “glycan array binding signal (z-score)” value [13] was 0.132 and the “glycan array binding signal (z-score)” value [14] was -1.22. For the same binder, the “glycan array binding signal (z-score)” value [15] was -0.657, the “glycan array binding signal (z-score)” value [16] was 0.797 and the “glycan array binding signal (z-score)” value [17] was 2.06. For the same binder, the “glycan array binding signal (z-score)” value (Fuc(a1-4)GlcNAc) was -0.527, the “glycan array binding signal (z-score)” value (Fuc(b1-3)GlcNAc) was -0.712 and the “glycan array binding signal (z-score)” value (Gal(a1-2)Gal) was -0.481. For the same binder, the “glycan array binding signal (z-score)” value (Gal(a1-3)Gal) was 0.196, the “glycan array binding signal (z-score)” value (Gal(a1-3)Gal(b1-3)GlcNAc) was -0.088 and the “glycan array binding signal (z-score)” value [18] was 1.63. The “glycan array binding signal (z-score)” value [19] was 0.365, the “glycan array binding signal (z-score)” value [20] was 1.09 and the “glycan array binding signal (z-score)” value [21] was 0.078. The “glycan array binding signal (z-score)” value [22] was 0.452, the “glycan array binding signal (z-score)” value (Gal(a1-3)Gal(b1-4)Glc) was -0.67 and the “glycan array binding signal (z-score)” value (Gal(a1-3)Gal(b1-4)GlcNAc) was -0.146. For the same binder, the “glycan array binding signal (z-score)” value [23] was -0.427, the “glycan array binding signal (z-score)” value [24] was 3.33 and the “glycan array binding signal (z-score)” value [25] was -0.044. The “glycan array binding signal (z-score)” value [26] was -0.567, the “glycan array binding signal (z-score)” value [27] was 0.431 and the “glycan array binding signal (z-score)” value [28] was 0.944. For the same binder, the “glycan array binding signal (z-score)” value (Gal(a1-3)GalNAc) was -0.197.
